Paper PMC11055865
These are yes or no findings as the source states them, for the method shown. Where a sequence is shown, tags or fusion partners need not be part of it. Blank lines part the entries; values can stand above or below the binder they belong to.

Tests used:
[1] = biological target: HROB-FLAG (wild type HROB, homologous recombination factor with OB-fold) (human) (UniProt Q8N3J3); assay: mass photometry; protein alone in solution, no DNA; 50-200 nM final protein in 50 mM Tris-HCl pH 7.5, 100 mM NaCl; oligomeric state of MCM8-9 unchanged with ATP-γ-S; both purified
[2] = biological target: T1, FLAG-tagged MCM8 (human), Q9UJA3; assay: as above; details: remark: other sources report otherwise
T1 chain: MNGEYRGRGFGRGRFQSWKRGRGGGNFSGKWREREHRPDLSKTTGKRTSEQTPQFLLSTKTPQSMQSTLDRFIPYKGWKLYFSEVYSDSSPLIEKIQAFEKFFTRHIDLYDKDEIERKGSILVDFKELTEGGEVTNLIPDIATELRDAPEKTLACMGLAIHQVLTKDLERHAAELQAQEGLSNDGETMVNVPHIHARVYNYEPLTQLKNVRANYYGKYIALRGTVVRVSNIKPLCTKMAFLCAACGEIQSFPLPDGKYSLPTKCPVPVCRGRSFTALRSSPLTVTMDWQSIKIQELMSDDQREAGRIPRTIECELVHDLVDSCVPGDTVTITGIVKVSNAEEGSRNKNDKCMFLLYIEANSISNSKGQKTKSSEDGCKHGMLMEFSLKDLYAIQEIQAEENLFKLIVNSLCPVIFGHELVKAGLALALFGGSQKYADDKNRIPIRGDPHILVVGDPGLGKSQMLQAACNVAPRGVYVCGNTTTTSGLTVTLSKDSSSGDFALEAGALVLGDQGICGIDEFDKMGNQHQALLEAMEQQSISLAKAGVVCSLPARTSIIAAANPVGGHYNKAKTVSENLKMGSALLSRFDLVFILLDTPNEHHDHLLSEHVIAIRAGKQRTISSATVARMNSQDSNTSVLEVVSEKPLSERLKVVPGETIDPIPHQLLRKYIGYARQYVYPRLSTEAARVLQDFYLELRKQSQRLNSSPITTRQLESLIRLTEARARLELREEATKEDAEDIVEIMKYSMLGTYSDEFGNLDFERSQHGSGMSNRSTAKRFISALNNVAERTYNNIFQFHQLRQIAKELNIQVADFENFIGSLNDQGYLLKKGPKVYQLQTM

binding [1]: no binding
B1: HROB-FLAG (wild type HROB, homologous recombination factor with OB-fold) (protein, UniProt Q8N3J3-4 1-646)
chain: MACSLQKLFAVEEEFEDEDFLSAVEDAENRFTGSLPVNAGRLRPVSSRPQETVQAQSSRLLLLHPTAPSEALGLPDLDLCLPASSTPSADSRPSCIGAAPLRPVSTSSSWIGNQRRVTVTEVLREPARPQSSALHPLLTFESQQQQVGGFEGPEQDEFDKVLASMELEEPGMELECGVSSEAIPILPAQQREGSVLAKKARVVDLSGSCQKGPVPAIHKAGIMSAQDESLDPVIQCRTPRPPLRPGAVGHLPVPTALTVPTQQLHWEVCPQRSPVQALQPLQAARGTIQSSPQNRFPCQPFQSPSSWLSGKAHLPRPRTPNSSCSTPSRTSSGLFPRIPLQPQAPVSSIGSPVGTPKGPQGALQTPIVTNHLVQLVTAASRTPQQPTHPSTRAKTRRFPGPAGILPHQQSGRSLEDIMVSAPQTPTHGALAKFQTEIVASSQASVEEDFGRGPWLTMKSTLGLDERDPSCFLCTYSIVMVLRKAALKQLPRNKVPNMAVMIKSLTRSTMDASVVFKDPTGEMQGTVHRLLLETCQNELKPGSVLLLKQIGVFSPSLRNHYLNVTPNNLVHIYSPDSGDGSFLKPSQPFPKDSGSFQHDVAAKPEEGFRTAQNLEAEASPEEELPEADDLDGLLSELPEDFFCGTSS

binding [2]: no binding
B2: FLAG-tagged MCM8, Q9UJA3 1-840 (protein)
chain: T1 chain
